# Like-named read-outs stand apart in the source and are kept apart here. No constants are given. Whether binding was seen depends on the method and setting. Some entries that bind do so weakly or less than the wild type.
# Sequences of proteins named here, by UniProt entry; tags and fusion partners are left off.
# UniProt P15806: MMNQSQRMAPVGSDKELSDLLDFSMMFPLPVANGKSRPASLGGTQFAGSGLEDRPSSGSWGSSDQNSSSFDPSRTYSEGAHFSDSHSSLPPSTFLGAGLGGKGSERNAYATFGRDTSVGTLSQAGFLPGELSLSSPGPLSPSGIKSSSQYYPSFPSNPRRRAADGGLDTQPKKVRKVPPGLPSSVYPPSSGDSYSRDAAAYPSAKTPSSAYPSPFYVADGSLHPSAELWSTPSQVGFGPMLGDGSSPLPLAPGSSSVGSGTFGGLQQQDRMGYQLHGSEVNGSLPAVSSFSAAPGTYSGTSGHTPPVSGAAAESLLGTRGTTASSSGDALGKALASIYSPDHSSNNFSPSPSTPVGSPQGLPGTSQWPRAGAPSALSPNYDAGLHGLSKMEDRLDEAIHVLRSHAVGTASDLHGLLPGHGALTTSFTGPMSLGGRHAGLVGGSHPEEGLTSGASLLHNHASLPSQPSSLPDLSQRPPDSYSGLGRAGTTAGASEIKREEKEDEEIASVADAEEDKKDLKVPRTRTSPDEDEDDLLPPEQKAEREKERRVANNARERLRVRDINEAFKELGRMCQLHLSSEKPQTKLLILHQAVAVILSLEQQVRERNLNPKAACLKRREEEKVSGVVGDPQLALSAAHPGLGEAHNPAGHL
# How the values were obtained:
# E12 [1] = biological target: E12 (UniProt P15806); experiment: native gel or EMSA; programmed wheat germ extracts mixed as indicated, 15 min at room temperature in 100 mM Hepes pH 7.6, 25 mM KCl, 1.5 mM MgCl2, 0.2 mM EDTA, 2.5% glycerol, 100 ng poly dIdC; then 15 min with 32P-labelled mouse Hes5(e1) E-box probe; 4.5% polyacrylamide gel, autoradiography; protein complexes are seen only as bound to the DNA probe
# E12 [2] = biological target: E12 (UniProt P15806); experiment: as above; remark: listed apart in the source
Molecule,binding (E12 [1]),binding (E12 [2])
E12 (from UniProt P15806 1-651),binds,–
"Id1 (protein, UniProt P20067 1-168) MKVASGSAAAAAGPSCSLKAGRTAGEVVLGLSEQSVAISRCAGTRLPALLDEQQVNVLLYDMNGCYSRLKELVPTLPQNRKVSKVEILQHVIDYIRDLQLELNSESEVGTTGGRGLPVRAPLSTLNGEISALAAEVRSESEYYIILQWETEATGGGCPPSLLFRRIAI",–,binds
